This note sets out measurements from patent US20240423973A1 (VINCERX PHARMA GMBH, priority 2021, published 2024).

This data set in a line: general procedure: solution-phase peptide synthesis; HATU / N,N-diisopropylethylamine; EDCI/HOBt; NHS active esters. To be noted: trifluoroacetic acid salt.
Where [1] appears, read: late stage modification step, LC-MS.

On to “2-[[2-[[2-[[2-[tert-butoxycarbonyl(methyl)amino]acetyl]-methyl-amino]acetyl]-methyl-amino]acetyl]-methyl-amino]acetic acid”, for which the “crude purity (method not given)” value under setting [1] amounted to 94%. Besides, for the setting “late stage modification step”, the step yield came to 93%. Consider “(2S)-1-[(18S)-18-(2-tert-butoxy-2-oxoethyl)-2,2,5,8,11,14-hexamethyl-4,7,10,13,16,19-hexaoxo-3-oxa-5,8,11,14,17-pentaazanonadecan-19-yl]pyrrolidine-2-carboxylic acid”, for which the “crude purity (method not given)” value under setting [1] is on record as 99%. Where the note is “late stage modification step”, the step yield was 98%. Take “(2S)-1-[(30S)-30-(2-tert-butoxy-2-oxoethyl)-2,2,5,8,11,14,17,20,23,26-decamethyl-4,7,10,13,16,19,22,25,28,31-decaoxo-3-oxa-5,8,11,14,17,20,23,26,29-nonaazahentriacontan-31-yl]pyrrolidine-2-carboxylic acid”: the “crude LC-MS purity” value under setting [1] is given as 93% purity. Besides, the step yield (late stage modification step) is listed as 88% yield. For the substance “(4S)-4,11-Diethyl-3,14-dioxo-3,4,12,14-tetrahydro-1H-pyrano[3′,4′:6,7]indolizino[1,2-b]quinolin-4-yl N-[3-(2-{2-[2-(L-lysylamino)ethoxy]ethoxy}ethoxy)propanoyl]-L-alpha-aspartyl-L-prolyl-L-valinate·trifluoroacetic acid (1:1)”, the “crude purity (method not given)” value under setting [1] is on record as 100% purity. On to “(4S)-4,11-Diethyl-3,14-dioxo-3,4,12,14-tetrahydro-1H-pyrano[3′,4′:6,7]indolizino[1,2-b]quinolin-4-yl N-{2-[{2-[{2-[({4-[({(1R)-2-carboxy-1-[3-({3-[(propylcarbamoyl)amino]benzene-1-sulfonyl}amino)phenyl]ethyl}carbamoyl)amino]phenyl}carbamoyl)amino]ethyl} (methyl)amino] ethyl} I(methyl)amino]ethyl}-N-methylglycyl-L-asparaginyl-L-prolyl-L-valinate [B4]”, for which the “final purity (method not given)” value (conjugation step, LC-MS) is reported as 96% purity. For the same substance, where the note is “conjugation step”, the conjugation yield came to 63%. “(4S)-4,11-Diethyl-3,14-dioxo-3,4,12,14-tetrahydro-1H-pyrano[3′,4′:6,7]indolizino[1,2-b]quinolin-4-yl N-{3-[2-(2-{2-[(N^2,N^6-di-beta-alanyl-L-lysyl)amino]ethoxy} ethoxy)ethoxy] propanoyl}-L-alpha-aspartyl-L-prolyl-L-valinate”: the “crude purity (method not given)” value under setting [1] was found to be 100% purity. “(4S)-4,11-diethyl-3,14-dioxo-3,4,12,14-tetrahydro-1H-pyrano[3′,4′:6,7] indolizino[1,2-b]quinolin-4-yl N-methyl-N-(2-{methyl[2-(methylamino) ethyl]amino}ethyl)glycyl-L-asparaginyl-L-prolyl-L-valinate·trifluoroacetic acid (1:1)”: the “crude purity (method not given)” value under setting [1] amounted to 100% purity.

“(4S)-4,11-diethyl-3,14-dioxo-3,4,12,14-tetrahydro-1H-pyrano[3′,4′:6,7] indolizino[1,2-b]quinolin-4-yl N-{2-[{2-[(2-aminoethyl)(methyl)amino]ethyl}(methyl)amino]ethyl}-N-methylglycylglycyl-L-prolyl-L-valinate·trifluoroacetic acid (1:1)”: the “crude purity (method not given)” value under setting [1] amounted to 100% purity. Regarding “(4S)-4,11-diethyl-3,14-dioxo-3,4,12,14-tetrahydro-1H-pyrano[3′,4′:6,7]indolizino[1,2-b]quinolin-4-yl N-(3-{2-[2-(2-{[N^2,N^6-bis(3-{2-[2-(2-aminoethoxy)ethoxy]ethoxy}propanoyl)-L-lysyl]amino}ethoxy)ethoxy]ethoxy}propanoyl)-L-alpha-aspartyl-L-prolyl-L-valinate”, the “crude purity (method not given)” value under setting [1] was found to be 100% purity. The step yield (late stage modification step) is on record as 98% yield. On to “(4S)-4,11-diethyl-3,14-dioxo-3,4,12,14-tetrahydro-1H-pyrano[3′,4′:6,7]indolizino[1,2-b]quinolin-4-yl N-methyl-N-(2,2,8,11-tetramethyl-4-oxo-3-oxa-5,8,11-triazatridecan-13-yl) glycyl-L-asparaginyl-L-prolyl-L-valinate”, for which the “final purity (method not given)” value (coupling step, LC-MS) is given as 55% purity. The step yield (coupling step) was 37%. The like results for “(4S)-4,11-diethyl-3,14-dioxo-3,4,12,14-tetrahydro-1H-pyrano[3′,4′:6,7]indolizino[1,2-b]quinolin-4-yl N-methyl-N-(2,2,8,11-tetramethyl-4-oxo-3-oxa-5,8,11-triazatridecan-13-yl) glycylglycyl-L-prolyl-L-valinate” were, in that order, 98% purity and 69%. As for “(4S)-4,11-diethyl-3,14-dioxo-3,4,12,14-tetrahydro-1H-pyrano[3′,4′:6,7]indolizino[1,2-b]quinolin-4-yl N-methylglycyl-N-methylglycyl-N-methylglycyl-N-methylglycyl-L-alpha-aspartyl-L-prolyl-L-valinate-trifluoroacetic acid (1/1)”, under setting [1], the “crude purity (method not given)” value was 97%. Besides, the step yield (late stage modification step) amounted to 101%. For the substance “(4S)-4,11-diethyl-3,14-dioxo-3,4,12,14-tetrahydro-1H-pyrano[3′,4′:6,7]indolizino[1,2-b]quinolin-4-yl N-{2-[(2-{[2-({5-[(2,5-dioxopyrrolidin-1-yl)oxy]-5-oxopentanoyl}amino)ethyl] (methyl) amino} ethyl)(methyl)amino]ethyl}-N-methylglycylglycyl-L-prolyl-L-valinate”, the “final purity (method not given)” value under setting [1] is 79%. Further, where the note is “late stage modification step”, the step yield is 58%. For “(4S)-4,11-diethyl-3,14-dioxo-3,4,12,14-tetrahydro-1H-pyrano[3′,4′:6,7]indolizino[1,2-b]quinolin-4-yl N-{2-[{2-[(2-aminoethyl)(methyl) amino]ethyl}(methyl)amino]ethyl}-N-methylglycyl-L-asparaginyl-L-prolyl-L-valinate·trifluoroacetic acid (1:1)”, the “final purity (method not given)” value under setting [1] was found to be 100% purity. As for “(4S)-4,11-diethyl-3,14-dioxo-3,4,12,14-tetrahydro-1H-pyrano[3′,4′:6,7]indolizino[1,2-b]quinolin-4-yl N-{2-[{2-[(2-{[N^2,N^6-bis(14-{4-[({(1R)-2-carboxy-1-[3-({3-[(propylcarbamoyl) amino]benzene-1-sulfonyl}amino)phenyl]ethyl}carbamoyl)amino]anilino}-14-oxo-4,7,10-trioxa-13-azatetradecanan-1-oyl)-L-lysyl]amino}ethyl)(methyl)amino] ethyl}(methyl)amino]ethyl}-N-methylglycyl-L-asparaginyl-L-prolyl-L-valinate”, the “final purity (method not given)” value (conjugation step, LC-MS) is given as 100% purity. For the setting “conjugation step”, the conjugation yield is recorded as 48% yield. The like results for “(4S)-4,11-diethyl-3,14-dioxo-3,4,12,14-tetrahydro-1H-pyrano[3′,4′:6,7]indolizino[1,2-b]quinolin-4-yl N-{2-[{2-[(2-{[N^2,N^6-bis(14-{4-[({(1S)-2-carboxy-1-[3-({3-[(propylcarbamoyl) amino] benzene-1-sulfonyl}amino)phenyl]ethyl}carbamoyl)amino]anilino}-14-oxo-4,7,10-trioxa-13-azatetradecanan-1-oyl)-L-lysyl]amino}ethyl) (methyl)amino]ethyl}(methyl) amino]ethyl}-N-methylglycyl-L-asparaginyl-L-prolyl-L-valinate” were, in that order, 100% purity and 41% yield. As to “(4S)-4,11-diethyl-3,14-dioxo-3,4,12,14-tetrahydro-1H-pyrano[3′,4′:6,7]indolizino[1,2-b]quinolin-4-yl N-{2-[{2-[(2-{[N^2,N^6-bis(N-{2-[{2-[{2-[({4-[({(1S)-2-carboxy-1-[3-({3-[(propylcarbamoyl) amino]benzene-1-sulfonyl}amino)phenyl]ethyl}carbamoyl)amino] phenyl}carbamoyl) amino]ethyl}(methyl)amino]ethyl}(methyl) amino]ethyl}-N-methylglycyl)-L-lysyl]amino}ethyl)(methyl)amino]ethyl}(methyl)amino]ethyl}-N-methylglycyl-L-asparaginyl-L-prolyl-L-valinate”, the “final purity (method not given)” value (conjugation step, LC-MS) was 100% purity. In addition, where the note is “conjugation step”, the conjugation yield stood at 36% yield.

In the case of “(4S)-4,11-diethyl-3,14-dioxo-3,4,12,14-tetrahydro-1H-pyrano[3′,4′:6,7]indolizino[1,2-b]quinolin-4-yl N-{2-[{2-[({4-[({(1R)-2-carboxy-1-[3-({3-[(propylcarbamoyl)amino]benzene-1-sulfonyl}amino)phenyl]ethyl}carbamoyl)amino]phenyl}carbamoyl)(methyl)amino]ethyl} (methyl)amino]ethyl}-N-methylglycyl-L-asparaginyl-L-prolyl-L-valinate”, the “final purity (method not given)” value (conjugation step, LC-MS) is 93% purity. For the same substance, the conjugation yield (conjugation step) was found to be 30%. Taken in the same sequence, the figures for “(4S)-4,11-diethyl-3,14-dioxo-3,4,12,14-tetrahydro-1H-pyrano[3′,4′:6,7]indolizino[1,2-b]quinolin-4-yl N-{2-[{2-[{2-[({4-[({(1R)-2-carboxy-1-[3-({3-[(propylcarbamoyl)amino]benzene-1-sulfonyl}amino)phenyl]ethyl}carbamoyl)amino]phenyl}carbamoyl)amino]ethyl}(methyl)amino]ethyl}(methyl)amino]ethyl}-N-methylglycylglycyl-L-prolyl-L-valinate” were 93% purity and 72%. Taken in the same sequence, the figures for “(4S)-4,11-diethyl-3,14-dioxo-3,4,12,14-tetrahydro-1H-pyrano[3′,4′:6,7]indolizino[1,2-b]quinolin-4-yl N-{2-[{2-[{2-[({4-[({(1S)-2-carboxy-1-[3-({3-[(propylcarbamoyl)amino]benzene-1-sulfonyl}amino)phenyl]ethyl}carbamoyl)amino]phenyl}carbamoyl)amino]ethyl}(methyl)amino] ethyl}(methyl)amino]ethyl}-N-methylglycyl-L-asparaginyl-L-prolyl-L-valinate” were 100% purity and 17% yield.
